Here are results for 67 sequences from PubChem BioAssay AID1347423 (Functional Genomics Laboratory (NCATS/FGL), 2020).

In all, about 52,000 sequences went through this assay and about 210 (0.4%) were called active.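 How the source made its calls: active means gene whose silencing raises cell survival under the drug, median off-target-corrected z-score across its silencing RNAs 2 or more; inactive means the rest.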 Some of the results follow.

This assay can be described thus: Resistance to Poly (ADP-Ribose) Polymerase inhibitor: Gene Identification via Genome-wide siRNA Screen. The settings on record: mouse BRCA2 R2336H ES cells, olaparib, CellTiter-Glo viability; active compounds read high. In a few lines:
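Genome-wide siRNA screen (3 siRNAs/gene, 20 nM) in mouse ES cells carrying hypomorphic BRCA2 R2336H; olaparib 500 nM added 48 h post-transfection, CellTiter-Glo viability 72 h later. Normalized to plate-median negative control; MAD z-scores, gene median, seed-adjusted.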
For the sequence GCUGUUAUCAACUUACUAATT against Rpe, the z-score was inactive: -0.28.

As to GGACAGCAUGAACUAACCCTT against Ednra, the z-score is inactive: 0.769.

Consider GGAUAGACACUAGGAUCCUTT against Pdcd1lg2, for which the z-score was inactive: 1.

On to “GCUCCUCAUUAAGGCUGUCTT against 1110037P11Rik”, for which the z-score was inactive: -2.16.

Take GGCAGCAGUGAAGAAAGUATT against Olfr131: the z-score was inactive: -1.01.

GGAACGUGGAUCUUUUUAUTT against Wiz: the z-score was inactive: 0.484.

With “GGACUGUAUCUCCAUCAAATT against 2210417D09Rik”, the z-score is inactive: 0.115.

As to GGGCAUCGAUAUCAUGCUATT against Epb4.1l1, the z-score was inactive: 1.49.

On to “GCACCUCUACUAUGAGGCUTT against 1110020C03Rik”, for which the z-score was inactive: -1.06.

GGAACUGGCUUCAAACCUUTT against MGC41689: the z-score is inactive: -0.886.

In the case of “GCUGGACGGUAGAAGAAUCTT against G430041M01Rik”, the z-score is inactive: -0.573.

For the sequence GCAUAGUGGAACAGUCUAUTT against Tcte1l, the z-score was inactive: 0.923.

For GCCCUCUCCAAACAUUGAATT against Neo1, the z-score was inactive: -0.733.

GGCCAUGGGUAUUAAUGACTT against Dhx8: the z-score was inactive: -0.895.

For GCACAUGCAUGGCUCUAAGTT against AA589481, the z-score is inactive: -0.729.

With GCUACCUGUCUGGACAUUUTT against Gfra3, the z-score is inactive: -1.03.

As to CCGUCAUACUCCGUGAUUCTT against Samd11, the z-score was inactive: 1.56.

Regarding GGUGAAGGUGCCUUCCAAATT against Il27ra, the z-score was inactive: -0.54.

In the case of GCUUGUCCUUUUUAGACAATT against Ipmk, the z-score was inactive: 0.639.

GGCCAGCUGAGCUUAAAGATT against Ccna2: the z-score was inactive: -1.48.

Take GGACUUUCACAGACCACUUTT against Rgma: the z-score was inactive: 0.765.

Turning to CCAAUUUAACUGUUGGUGGTT against Supt5h, the z-score was inactive: 0.616.

For the sequence GGAAGAAAUGGAAUUGAAGTT against Pcdhga6, the z-score is inactive: -0.434.

GCCAAUGAAAAACACCACUTT against Adam12: the z-score is inactive: -0.445.

Consider GCAAAAAAUCACUUCGAGUTT against Mgat4a, for which the z-score was inactive: -0.405.

For GGCUCGUUCCAACCCUUUATT against Dbx1, the z-score is inactive: -0.155.

With CGAAUUCAUACCAAGAAAGTT against Myo3a, the z-score was inactive: 0.632.

Turning to CCUCCUGUCGGACAGUGAATT against Gm93, the z-score is inactive: -1.77.

Take GCCUCGAUGGACUCAACAUTT against BC011210: the z-score was inactive: -0.425.

For GGAAGAUAUUGGUAAAAACTT against Ube1y1, the z-score was inactive: 0.333.

“GGACUGAGAAAACUCCAAATT against A630042L21Rik”: the z-score is inactive: -1.61.

Turning to GGCCAUUGACUUUGUGGAUTT against BC023835, the z-score was inactive: 0.665.

Turning to “GGGCCAUGUAUCUUGACAUTT against 1700011H14Rik”, the z-score is inactive: -0.976.

For the sequence GGUCAUCGAUAAGAAAAGATT against Hunk, the z-score was inactive: -1.64.

On to CUUAGCUUACAAACAAGGCTT against MGC5739, for which the z-score was inactive: 3.4.

Take GCCAAAACUCUGUUAGAUATT against Anapc7: the z-score was inactive: 1.62.

On to GCAUUCGCUACAAUUCCAUTT against Slc31a1, for which the z-score was inactive: -0.475.

Turning to GGAGAUCCGAUGUUAUGUGTT against Atp9a, the z-score was inactive: -0.699.

Turning to CCUCAAAUGGCCACACACUTT against Kcnj11, the z-score is inactive: -1.53.

For GGACCCUACAUUCUGUAUATT against Olfr474, the z-score was inactive: -0.118.

On to CCUUAUUCAACCAUACGGCTT against Fut10, for which the z-score is inactive: -0.165.

Turning to GCCAAAUUGACUGUAAAUGTT against Lrig2, the z-score is inactive: 0.225.

On to GGGAGAGGGAACAUUCAAGTT against BC040774, for which the z-score is inactive: 0.4.

As to GGUUGUUCCCUUGAAAGGCTT against Gamt, the z-score was inactive: -1.02.

For “GGAGAGUGCAAGGAAGAAGTT against 2410004L22Rik”, the z-score was inactive: -1.14.

In the case of GGAGCUAGAAAAGACAUACTT against Lmna, the z-score is inactive: 0.332.

As for GGAGAUCUGCUCUAAUUAUTT against Eif1ay, the z-score was inactive: -1.

For the sequence GGGAGCAUCAAACAACAAUTT against Tbr1, the z-score is inactive: 1.41.

On to GGAGGCCAAGCAGAAAGAGTT against Kars, for which the z-score is inactive: 0.607.

GGAUUGUGAGGUUGUAAUGTT against Hnrpu: the z-score is inactive: -2.03.

On to “GCCAAAAGGAGGACAUACCTT against D830007F02Rik”, for which the z-score is inactive: 1.13.

In the case of “GGUGGACCUGCACUUUACCTT against A830008O07”, the z-score is inactive: -0.411.

On to GGUUAUUAAGUAGCUUUUCTT against Dtx1, for which the z-score was inactive: 0.409.

With CCAGAGAACCAAGUUAUUUTT against Olfr344, the z-score is inactive: -0.458.

For CCUUGCUAGUAGAAUAAACTT against Park7, the z-score was inactive: 0.601.

Take GGCAACGAUGAAAACUACUTT against Runx1: the z-score was inactive: 0.439.

Consider GGAGAUGCUCUGCUGGUGUTT against Cyb561, for which the z-score was inactive: 1.67.

As for GGCGACACAGCAAAUGAAATT against Serpinb5, the z-score is inactive: 0.667.

As to “GGGUUUCAAUAUGAUCAAATT against 4932415G16Rik”, the z-score is inactive: -0.433.

In the case of GGCAGAACUACAUUGAAAATT against Dusp11, the z-score was inactive: 1.8.

As for GGAAAAUGCUGACUGAUAUTT against Cts8, the z-score is inactive: -0.971.

Regarding “GGUGAAGAUAGUAAUACGGTT against 9130022K13Rik”, the z-score was inactive: 0.164.

GGCUAAGUUCGCUUACAAATT against Tmpit: the z-score was inactive: -0.222.

Regarding GCAUGAUAACAGCACUAGGTT against LOC381286, the z-score was inactive: 0.589.

Turning to GGCCGACAAUUUGUCAGUUTT against Uaca, the z-score is inactive: 0.232.

In the case of “CGAAGUCCAAAGCCCAGUATT against 4931406O17Rik”, the z-score was inactive: 1.46.

On to GGAUCUGCUCACAUAGUCATT against Slc2a2, for which the z-score was inactive: 0.972.
